# Test results from PubChem BioAssay AID1794845 (National Center for Advancing Translational Sciences (NCATS), 2023).
# The chains behind the UniProt entries cited, without tags or fusion partners. Where a name states a change or a piece, a line headed by the entry shows the natural chain unless it says otherwise.
# UniProt C7C422: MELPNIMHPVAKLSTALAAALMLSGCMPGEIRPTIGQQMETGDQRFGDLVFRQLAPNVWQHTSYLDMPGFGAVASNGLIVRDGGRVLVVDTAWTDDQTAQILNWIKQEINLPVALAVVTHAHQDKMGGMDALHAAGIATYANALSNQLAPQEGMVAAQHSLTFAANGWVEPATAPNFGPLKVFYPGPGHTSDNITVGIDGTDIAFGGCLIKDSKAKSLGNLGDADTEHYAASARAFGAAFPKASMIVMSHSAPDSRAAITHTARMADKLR
# Fewer than 10 of roughly 6,900 compounds were called active. Calls follow the shape of the dose curve; as a rule, active = well fitted curve in the direction sought with a large enough effect; inconclusive = small, poorly fitted or top-dose-only effect, or another doubt; inactive = no such curve, though single readings can be large or run the other way. The list shows a part of the results.
# Target: Metallo-beta-lactamase type 2 (Klebsiella pneumoniae) (UniProt C7C422)
# Assay: qHTS to identify inhibitors of the New Delhi Metallo-beta-lactamase (NDM): primary screen against the NCATS Gemini Collection; also: % of control where 0% means no effect
# Details: NDM-1 enzyme, meropenem hydrolysis, absorbance 300 nm; at 38.4 µM (top of the series) unless noted
# Outline: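 NDM-1 at 2 nM final in 50 mM HEPES pH 7.0, 1 uM ZnSO4, 0.01% Tween20, preincubated >30 min with compound. Meropenem 50 uM final added; absorbance at 300 nm after 30 min.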
row,Structure (SMILES),activity % (negative = inhibition)
1,O=C(C1CCCN1[S+](=O)([O-])c1cccc(C(F)(F)F)c1)N1CCC(c2nc3ccncc3[nH]2)C1 (configuration not stated),inactive: 0.378%
2,O=C(CC1CCCN(c2cn[nH]c(=O)c2)C1)N1CCCCCC1 (configuration not stated),inactive: -0.309%
3,CN(C)C(=O)CCN1CCOC(CC(c2ccccc2)c2ccccc2)C1 (configuration not stated),inactive: 0.721%
4,Cc1nc(CC(=O)N2CCCC(c3ccc(C(=O)O)cc3)C2)cs1 (configuration not stated),inactive: -1.53%
5,COCCNC(=O)C[C@@H]1C[C@@H](C(C)C)[C@H](CNC(=O)C2CC2)C=C1C,inactive: 3.03% [at 57.5 µM]
6,Cc1cc(CN2CC(Oc3ccc(F)c(F)c3)C2)no1,inactive: 2.13% [at 57.5 µM]
7,O=C(CC[C@@H]1CNC(=O)[C@@H]2C[C@H](NC(=O)Nc3ccc(F)cc3F)CN12)NC1CC1,inactive: -5.42% [at 57.5 µM]
8,C#CCNC(=O)C1CCc2nnc(-c3ccc(Cl)cc3Cl)n21 (configuration not stated),inactive: 1.05%
9,c1ccc(O[C@H]2COCCN(Cc3cccc4c3OCO4)C2)cc1,inactive: -2.43% [at 57.5 µM]
10,COc1nccnc1NC1CCN(C(=O)c2ccco2)CC1,inactive: 4.75%
11,CN(C)C(=O)N1CCCn2nc(CNC(=O)Nc3cccc(C#N)c3)cc2C1,inactive: 57.3%
12,CC(C)=CCO[C@H]1CCOC[C@H]1NC(=O)CCc1ccc(=O)[nH]n1,inactive: 3.39%
13,Cc1ccc(C(=O)N2CCC(N3C(=O)C4(CCCC4)C3c3scnc3C)CC2)cn1 (configuration not stated),inactive: 8.69%
14,O=C1NC2(CN([S+](=O)([O-])c3ccccc3)C2)Oc2ccccc21,inactive: 0.0334% [at 57.5 µM]
15,COc1ccc(Cl)cc1NC(=O)CCC1CCCN(C(=O)c2ccnn2C)C1 (configuration not stated),inactive: 51.1%
16,CCn1ncc(N2CCC(NC(=O)c3ccccc3)CC2)cc1=O,inactive: -3.91%
17,O=c1n(CCN2CCCC(N[S+](=O)([O-])c3ccccc3)C2)nc2n1CCCC2 (configuration not stated),inactive: 39.9%
18,COc1ccccc1C(=O)N1CCC2(C1)NC(=O)c1ccccc1CO2 (configuration not stated),inactive: 2.38%
19,COCCN1C(=O)c2ccccc2C(C(=O)Nc2ccc3[nH]ccc3c2)C12CCCC2 (configuration not stated),inactive: -0.588%
20,O=C1CCN(C(=O)c2ccoc2)CCCC(c2nc(-c3cccnc3)no2)CCN1 (configuration not stated),inactive: -4.47%
21,Cn1cc(C(=O)N2CCCC(c3nnnn3C)C2)cn1 (configuration not stated),inactive: 61.7%

# Exported bar-delimited: entries from further up
row | Structure (SMILES) | activity % (negative = inhibition)
3 | CN(C)C(=O)CCN1CCOC(CC(c2ccccc2)c2ccccc2)C1 (configuration not stated) | inactive: 0.721%
4 | Cc1nc(CC(=O)N2CCCC(c3ccc(C(=O)O)cc3)C2)cs1 (configuration not stated) | inactive: -1.53%

# Later entries

row,Structure (SMILES),activity % (negative = inhibition)
1,O=S1(=O)CC(COCc2ccccc2)CN1c1ccccc1 (configuration not stated),inactive: -5.05%
2,COCC1(CNCC2CCCC2)C[C@@H](O)[C@@H](O)C1 (some centres not stated),inactive: 0% [at 77.1 µM]
3,Cc1ccccc1-c1cc(O)c2c(c1)CN(C(=O)C1CCNCC1)CCO2,inactive: -4.25%
4,Cc1nc(C2CCN(C(=O)[C@H]3CNC[C@H](C(=O)N4CCCC4)C3)CC2)n[nH]1,inactive: -4.04%
5,Cc1sc2cc(C(=O)NC(C)C)[nH]c2c1CN1CCCCC1,inactive: 25.4%
6,COc1ccc(C(=O)N2CCC(n3c(C)cnc3-c3ccncc3)C2)c(OC)c1 (configuration not stated),inactive: 3.23%
7,CC1CCN(S(=O)(=O)N2CCC(C(=O)N3CCc4nc5cc[nH]n5c(=O)c4C3)CC2)CC1,inactive: 3.27%
8,O=C(CCc1conc1-c1ccc(F)cc1)NCC1CCCO1 (configuration not stated),inactive: 1.18%
9,Cc1ccn(CCC(=O)NCc2cccnc2Oc2ccc(F)c(F)c2)n1,inactive: 2.54%
10,CS(=O)(=O)N1CCOc2ccc(CCC(=O)NCC3CCCO3)cc2C1 (configuration not stated),inactive: 1.61%
11,COCc1nc(C2CC(N)C2)cc(N2CCC(Cn3cccn3)CC2)n1 (configuration not stated),inactive: 0.388%
12,CCC1C(=O)NCCN1Cc1cn(-c2cccc(F)c2)nc1-c1ccc(C)o1 (configuration not stated),inactive: 16.7%
13,CCN(Cc1nccn1C)C(=O)c1ccc(N2CCC(COC)C2)nc1 (configuration not stated),inactive: -0.441%
14,COCCC1(NC(=O)C2CC2)CCN(C(=O)C2CC2)CC1,inactive: 0.235%
15,COC(=O)[C@@H](Cc1c[nH]c2ccccc12)NC(=O)[C@@H]1CN(C(=O)c2cccnc2)CCN1C(=O)NC(C)C,inactive: -0.87%
16,Cc1ncc(-c2nc3cc(S(=O)(=O)NC(C)C)ccc3n2C(C)C)cn1,inactive: 18.6%
17,Cc1cc(C)n(-c2cccc(CN3CCCC(O)(CN(C)C)C3)c2)n1 (configuration not stated),inactive: 21.4%
18,CC1(c2ccccc2)N(Cc2cccnc2)C(=O)OC12CCN(C(=O)Cc1ccc(Cl)cc1)CC2 (configuration not stated),inactive: 40.6%
19,Clc1cc(NC2CCCCC2)n2nccc2n1,inactive: 17.1% [at 57.5 µM]
20,O=C(c1ccccc1)N1CCCC2(CC(c3ccccn3)=NO2)C1 (configuration not stated),inactive: 0.634%
21,Cc1cccc(N2CCN(C(=O)c3cc4n(n3)CC(c3ccc(Cl)cc3)OC4)CC2)c1 (configuration not stated),inactive: -4.28%

# Some of the entries so far, as tab-separated lines.
row	Structure (SMILES)	activity % (negative = inhibition)
11	CN(C)C(=O)N1CCCn2nc(CNC(=O)Nc3cccc(C#N)c3)cc2C1	inactive: 57.3%
19	Clc1cc(NC2CCCCC2)n2nccc2n1	inactive: 17.1% [at 57.5 µM]
